Reference: publication doi:10.1101/2021.09.16.460522
These are yes or no findings as the source states them, for the method shown. Binding seen in cells or lysates may run through a third protein. These calls come from enrichment with a bait or labelling near it, and not all partners need be listed. No binding means not detected with the bait.

Chains of the proteins cited; added tags and fusions are not shown. Residues count along the entry.
UniProt P47878, residues 28-292: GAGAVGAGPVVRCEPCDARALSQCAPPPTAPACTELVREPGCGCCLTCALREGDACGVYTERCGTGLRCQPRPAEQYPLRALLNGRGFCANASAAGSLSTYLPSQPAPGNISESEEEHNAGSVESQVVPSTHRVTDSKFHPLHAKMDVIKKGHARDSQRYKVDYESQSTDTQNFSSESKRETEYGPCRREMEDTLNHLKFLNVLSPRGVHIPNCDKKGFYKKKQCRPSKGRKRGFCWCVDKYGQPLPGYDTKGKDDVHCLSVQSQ
UniProt P08025, residues 49-118: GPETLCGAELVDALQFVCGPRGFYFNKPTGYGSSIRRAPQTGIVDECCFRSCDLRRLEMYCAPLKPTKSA

Target: C-terminus FLAG epitope-tagged mouse IGFBP3 (mouse) (UniProt P47878)
Assay: affinity purification with mass spectrometry

IGF1 (from UniProt P08025 49-118) (ligand)
binding: no binding
